# Measured values: PubChem BioAssay AID588497 (NMMLSC, 2011)
# The campaign covered roughly 360,000 compounds. About 780 (0.22%) were called active. This list was built around the results that the source calls inconclusive (neither active nor inactive); the mix of calls is not that of the screen. Rule as the data show it: active = inhibition above about 35% (passing the limit was not always enough); inconclusive = no clear call, values can overlap the other calls.
# System: Botulinum neurotoxin type F light chain protease (Clostridium botulinum)
# Test: BoNT/F light chain protease inhibitors, primary screen, biochemical, flow cytometry, MLPCN library (AID 588497); also: plate controls were buffer without enzyme for full effect and enzyme alone for no effect
# Conditions: Multiplex microsphere protease cleavage assay, at 10 µM, active compounds read high
row,SMILES,inhibition
1,CCOC(=O)C1CC(=NO)c2ccc(OC)c(OC)c2C1 (stereo not given),inactive: -8.7%
2,O=C(O)CN1C(=O)S/C(=C\c2ccc3c(c2)OCO3)C1=O,inconclusive: 51.7%
3,NC(=O)C1(N2CCCCC2)CCN(Cc2ccc(Br)cc2)CC1,inconclusive: -211%
4,O=C(CCCCCN1C(=O)c2ccccc2C1=O)Nc1ccccc1F,inconclusive: 18.7%
5,COC(=O)C1Cc2c([nH]c3ccccc23)C2(CCN(Cc3ccccc3)CC2)N1 (stereo not given),active: 40.8%
6,COC(=O)c1sccc1S(=O)(=O)Nc1ccc(C)cc1,inconclusive: 77.7%
7,CCOC(=O)N1CCN(C(=O)CSc2nnc(CNC(=O)c3ccccc3F)o2)CC1,inconclusive: 18.1%
8,CCCC1Cc2c(sc(N)c2C#N)CO1 (stereo not given),inactive: -3.8%
9,CCC(C)OC(=O)c1[nH]c2c(c1C)C(=O)CC(c1ccc(N(C)C)cc1)C2 (stereo not given),inactive: -8.4%
10,COCCN1C(=O)CCC1(C)C(=O)NC1CCCC1 (stereo not given),inactive: 6.6%
11,C=CCn1c(NCc2ccccc2O)nc2ccccc21,inconclusive: 9.6%
12,COc1ccc(S(=O)(=O)N2CCCC(C(=O)NCc3ccccc3)C2)cc1 (stereo not given),inactive: -8.8%
13,O=C(CSc1nnc(SCc2cccc3ccccc23)s1)N/N=C/c1c[nH]c2ccccc12,inactive: -0.4%
14,O=C(CCn1c(=S)[nH]c2ccccc2c1=O)NCCCN1CCOCC1,inactive: 1.3%
15,COc1cc(/C=C2\SC(=O)N(CC(=O)Nc3cccc(C)c3)C2=O)ccc1OC(C)C(=O)O (stereo not given),inconclusive: 11.6%
16,Cc1ccc(OCC(=O)NNC(=O)c2cc3ccccc3o2)cc1,inconclusive: -8.7%
17,CC(=O)Nc1ccc(NC(=O)C2CC(=O)N(C(C)C)C2)cc1 (stereo not given),inconclusive: -59.9%
18,O=C(CSc1nc2ccccc2c(=O)n1-c1ccc(F)cc1)NC1CCS(=O)(=O)C1 (stereo not given),inconclusive: 21.4%
19,c1ccc2c(Nc3nc(-c4ccncc4)nc4ccccc34)cccc2c1,inconclusive: -11.8%
20,Cc1onc(-c2ccccc2)c1-c1nnc(-c2ccccc2C(F)(F)F)o1,inactive: -11.1%
21,CS(=O)(=O)c1ccccc1-c1nnc(NC(=O)c2cccc(N3C(=O)CCC3=O)c2)o1,inconclusive: -6.1%
22,CC1CCCN(C(=O)CN(C)S(=O)(=O)c2cccc3nsnc23)C1 (stereo not given),inactive: -6.7%
23,O=S1(=O)CCC(NC2CCCC2)C1 (stereo not given),inconclusive: -14.7%
24,O=C(O)C1C2CCC(C2)C1C(=O)NCCc1ccc(F)cc1 (stereo not given),inconclusive: 7.4%
25,CC(=O)N/C(=C\c1ccccc1)C(=O)OCC(=O)NC(=O)c1ccccc1,inconclusive: 6.6%

# A second format for some results above.
row	SMILES	inhibition
3	NC(=O)C1(N2CCCCC2)CCN(Cc2ccc(Br)cc2)CC1	inconclusive: -211%
4	O=C(CCCCCN1C(=O)c2ccccc2C1=O)Nc1ccccc1F	inconclusive: 18.7%
7	CCOC(=O)N1CCN(C(=O)CSc2nnc(CNC(=O)c3ccccc3F)o2)CC1	inconclusive: 18.1%
11	C=CCn1c(NCc2ccccc2O)nc2ccccc21	inconclusive: 9.6%
24	O=C(O)C1C2CCC(C2)C1C(=O)NCCc1ccc(F)cc1 (stereo not given)	inconclusive: 7.4%
25	CC(=O)N/C(=C\c1ccccc1)C(=O)OCC(=O)NC(=O)c1ccccc1	inconclusive: 6.6%
